Measurements: patent US11965201B2, “Arginine supplementation to improve efficiency in gas fermenting acetogens” (LanzaTech NZ, Inc., priority 2015, dated 2024)
The amount applied is not stated for every result.

Tested on: C. autoethanogenum DSM10061
Assay: Amino acid consumption and production during heterotrophic growth (HPLC), compared to biomass requirement
Format: cell-based, Clostridium autoethanogenum

N=C(N)NCCC[C@H](N)C(=O)O [arginine]
OD by which the amino acid was completely exhausted (12AA medium): 0.37 | OD by which the amino acid was depleted (14AA and 8AA media): 0.24
